These are yes or no findings as the source states them, for the method shown. Binding seen in cells or lysates may run through a third protein. Some entries that bind do so weakly or less than the wild type.

Protein sequences, listed by entry. Tags and fused reporters are not part of them.
UniProt P52945: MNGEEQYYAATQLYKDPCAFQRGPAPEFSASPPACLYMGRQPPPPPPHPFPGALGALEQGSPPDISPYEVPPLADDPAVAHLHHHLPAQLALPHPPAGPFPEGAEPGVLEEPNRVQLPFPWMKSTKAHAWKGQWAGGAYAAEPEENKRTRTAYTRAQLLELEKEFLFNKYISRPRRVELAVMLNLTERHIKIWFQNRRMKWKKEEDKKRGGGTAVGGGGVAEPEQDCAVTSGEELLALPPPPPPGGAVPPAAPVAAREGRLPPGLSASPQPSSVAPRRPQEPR
UniProt P52947: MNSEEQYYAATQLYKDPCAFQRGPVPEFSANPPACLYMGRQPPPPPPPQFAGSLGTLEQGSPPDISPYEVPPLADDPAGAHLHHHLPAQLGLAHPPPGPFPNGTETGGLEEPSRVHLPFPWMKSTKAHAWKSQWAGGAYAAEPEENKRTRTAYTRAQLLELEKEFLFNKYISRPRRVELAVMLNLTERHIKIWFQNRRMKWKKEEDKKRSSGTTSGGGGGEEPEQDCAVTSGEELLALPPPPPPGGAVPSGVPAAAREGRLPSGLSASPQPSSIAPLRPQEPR
UniProt P52946: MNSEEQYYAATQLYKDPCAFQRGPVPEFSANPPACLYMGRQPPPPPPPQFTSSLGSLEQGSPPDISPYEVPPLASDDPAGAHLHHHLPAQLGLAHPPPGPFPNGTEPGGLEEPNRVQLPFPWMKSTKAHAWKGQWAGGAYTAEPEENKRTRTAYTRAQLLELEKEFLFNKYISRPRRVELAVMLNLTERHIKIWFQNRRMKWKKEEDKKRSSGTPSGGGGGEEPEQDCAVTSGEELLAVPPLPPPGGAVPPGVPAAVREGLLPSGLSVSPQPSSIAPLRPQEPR
UniProt Q7KZF4: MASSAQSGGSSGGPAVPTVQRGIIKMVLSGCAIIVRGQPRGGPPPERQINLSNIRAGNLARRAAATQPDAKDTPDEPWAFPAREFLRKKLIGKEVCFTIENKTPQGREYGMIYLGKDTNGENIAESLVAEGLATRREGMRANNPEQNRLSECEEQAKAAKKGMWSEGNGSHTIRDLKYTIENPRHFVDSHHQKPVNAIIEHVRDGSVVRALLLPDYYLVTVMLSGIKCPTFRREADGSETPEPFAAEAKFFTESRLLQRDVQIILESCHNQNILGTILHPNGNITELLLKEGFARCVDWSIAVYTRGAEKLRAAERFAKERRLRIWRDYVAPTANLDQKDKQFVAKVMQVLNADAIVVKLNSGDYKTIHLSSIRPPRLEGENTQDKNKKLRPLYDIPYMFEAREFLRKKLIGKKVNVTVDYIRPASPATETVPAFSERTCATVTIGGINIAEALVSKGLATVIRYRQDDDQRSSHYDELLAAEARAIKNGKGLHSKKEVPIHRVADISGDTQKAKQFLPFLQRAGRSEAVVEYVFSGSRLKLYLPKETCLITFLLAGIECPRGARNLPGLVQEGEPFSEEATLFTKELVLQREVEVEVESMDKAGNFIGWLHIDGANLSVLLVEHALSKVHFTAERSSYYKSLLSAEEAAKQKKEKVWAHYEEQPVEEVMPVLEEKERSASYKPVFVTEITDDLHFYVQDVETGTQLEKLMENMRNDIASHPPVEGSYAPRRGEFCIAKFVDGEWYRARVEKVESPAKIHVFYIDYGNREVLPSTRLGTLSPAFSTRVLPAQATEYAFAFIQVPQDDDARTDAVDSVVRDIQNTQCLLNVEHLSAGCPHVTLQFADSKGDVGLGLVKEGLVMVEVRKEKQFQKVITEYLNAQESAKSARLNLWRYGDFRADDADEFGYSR

The target in assay [1] is T1, Staphylococcal Nuclease and Tudor domain-containing protein (SND1), mouse (mouse (endogenous in βTC3 cells and C57BL/6J pancreas)) (UniProt Q78PY7).
T1 sequence: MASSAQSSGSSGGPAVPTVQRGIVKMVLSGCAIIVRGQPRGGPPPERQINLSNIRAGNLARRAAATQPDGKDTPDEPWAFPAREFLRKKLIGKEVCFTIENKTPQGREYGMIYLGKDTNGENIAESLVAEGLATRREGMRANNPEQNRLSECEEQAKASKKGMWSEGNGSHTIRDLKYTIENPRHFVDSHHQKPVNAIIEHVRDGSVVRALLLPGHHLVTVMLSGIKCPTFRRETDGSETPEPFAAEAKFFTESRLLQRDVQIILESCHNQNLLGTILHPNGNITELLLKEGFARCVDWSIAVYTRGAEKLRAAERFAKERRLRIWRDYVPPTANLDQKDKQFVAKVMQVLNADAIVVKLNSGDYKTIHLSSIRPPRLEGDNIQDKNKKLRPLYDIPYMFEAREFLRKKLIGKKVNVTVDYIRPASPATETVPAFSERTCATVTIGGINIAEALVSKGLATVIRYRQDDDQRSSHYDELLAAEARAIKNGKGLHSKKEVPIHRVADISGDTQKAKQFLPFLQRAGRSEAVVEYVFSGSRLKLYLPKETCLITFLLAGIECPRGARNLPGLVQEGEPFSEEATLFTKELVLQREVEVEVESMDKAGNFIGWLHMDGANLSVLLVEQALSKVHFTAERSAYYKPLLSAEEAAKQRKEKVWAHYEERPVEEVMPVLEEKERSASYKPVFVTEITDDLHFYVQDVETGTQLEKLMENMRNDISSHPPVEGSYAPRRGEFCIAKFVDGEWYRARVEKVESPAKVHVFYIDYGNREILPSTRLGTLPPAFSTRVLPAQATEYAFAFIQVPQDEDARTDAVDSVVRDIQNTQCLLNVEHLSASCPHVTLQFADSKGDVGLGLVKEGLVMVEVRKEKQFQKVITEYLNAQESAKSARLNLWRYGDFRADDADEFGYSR
Put plainly: co-IP; 100 μg non-crosslinked nuclear extract of βTC3 or INS-1 832/13 cells; goat α-PDX1, α-SND1 or goat/rabbit IgG overnight at 4°C; Protein A/G PLUS-agarose; washed with PBS; immunoblot for PDX1 and SND1. (Immunoblotting shows a protein as a band on a membrane.)

For assay [2], the target named is Pancreatic and duodenal homeobox 1 (PDX1), human (human (endogenous in EndoC-βH1 cells and donor pancreas)) (UniProt P52945). The experiment in a line: proximity ligation; EndoC-βH1 cells fixed with 4% paraformaldehyde, permeabilized with 0.1% Triton X-100; goat α-Pdx1 and rabbit α-SND1.
For assay [3] the target is unchanged. Put plainly: proximity ligation; paraffin-embedded human pancreatic sections from nPOD donors (non-diabetic and T2D, n = 4 each), heat-activated antigen retrieval; goat α-Pdx1 and rabbit α-SND1; proinsulin counterstain; fewer signals in T2D donor β cell nuclei.
Assay [4] addresses T2, Staphylococcal Nuclease and Tudor domain-containing protein (SND1), rat (rat (endogenous in INS-1 832/13)) (UniProt Q66X93).
T2 sequence: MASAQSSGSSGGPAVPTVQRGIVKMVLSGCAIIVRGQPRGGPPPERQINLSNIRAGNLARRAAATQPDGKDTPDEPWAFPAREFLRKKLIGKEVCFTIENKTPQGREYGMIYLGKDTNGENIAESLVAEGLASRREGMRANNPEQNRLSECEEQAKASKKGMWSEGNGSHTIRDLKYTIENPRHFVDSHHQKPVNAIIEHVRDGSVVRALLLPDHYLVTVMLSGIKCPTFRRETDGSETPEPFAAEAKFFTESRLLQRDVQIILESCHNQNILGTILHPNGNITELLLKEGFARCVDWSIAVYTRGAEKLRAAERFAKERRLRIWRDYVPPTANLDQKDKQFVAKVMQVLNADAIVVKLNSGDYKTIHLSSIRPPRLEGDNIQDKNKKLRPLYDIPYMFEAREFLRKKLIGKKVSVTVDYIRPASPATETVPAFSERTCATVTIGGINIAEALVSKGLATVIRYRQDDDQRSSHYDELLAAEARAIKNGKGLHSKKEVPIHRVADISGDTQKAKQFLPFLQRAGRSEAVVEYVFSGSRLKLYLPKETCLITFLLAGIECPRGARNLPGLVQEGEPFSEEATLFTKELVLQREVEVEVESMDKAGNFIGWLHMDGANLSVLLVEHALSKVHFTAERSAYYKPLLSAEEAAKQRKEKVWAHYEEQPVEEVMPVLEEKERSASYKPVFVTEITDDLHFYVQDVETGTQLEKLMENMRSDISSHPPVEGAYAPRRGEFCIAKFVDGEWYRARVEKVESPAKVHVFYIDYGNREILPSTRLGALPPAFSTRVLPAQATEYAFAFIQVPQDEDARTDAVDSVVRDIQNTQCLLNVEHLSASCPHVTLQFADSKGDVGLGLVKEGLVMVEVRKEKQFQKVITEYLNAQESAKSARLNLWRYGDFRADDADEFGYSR
The experiment in a line: co-IP; 100 μg non-crosslinked nuclear extract of βTC3 or INS-1 832/13 cells; goat α-PDX1, α-SND1 or goat/rabbit IgG overnight at 4°C; Protein A/G PLUS-agarose; washed with PBS; immunoblot for PDX1 and SND1.

The target of assay [5] is Pancreatic and duodenal homeobox 1 (PDX1), rat (rat (endogenous in INS-1 832/13)) (UniProt P52947). The description is as above.
Assay [6] deals with Pancreatic and duodenal homeobox 1 (PDX1), mouse (mouse (endogenous in βTC3 cells and C57BL/6J pancreas)) (UniProt P52946). Put plainly: proximity ligation; cryosections of 12-week-old C57BL/6J mouse pancreas, 1% SDS permeabilization; goat α-Pdx1 and rabbit α-SND1; insulin counterstain.
Assay [7] has the same target. The experiment in a line: co-IP; 100 μg non-crosslinked nuclear extract of βTC3 or INS-1 832/13 cells; goat α-PDX1, α-SND1 or goat/rabbit IgG overnight at 4°C; Protein A/G PLUS-agarose; washed with PBS; immunoblot for PDX1 and SND1.

Regarding “Pancreatic and duodenal homeobox 1 (PDX1), mouse (from UniProt P52946 1-284)”, in assay [1], the binding entry is on record as “binds”. Consider “Staphylococcal Nuclease and Tudor domain-containing protein (SND1), human (from UniProt Q7KZF4 1-910)”, for which the binding entry in assay [2] and in assay [3] was “binds” throughout.

Regarding “Pancreatic and duodenal homeobox 1 (PDX1), rat (from UniProt P52947 1-283)”, the binding result in assay [4] is recorded as “binds”.

B1: Staphylococcal Nuclease and Tudor domain-containing protein (SND1), rat (protein, UniProt Q66X93 1-909)
chain: MASAQSSGSSGGPAVPTVQRGIVKMVLSGCAIIVRGQPRGGPPPERQINLSNIRAGNLARRAAATQPDGKDTPDEPWAFPAREFLRKKLIGKEVCFTIENKTPQGREYGMIYLGKDTNGENIAESLVAEGLASRREGMRANNPEQNRLSECEEQAKASKKGMWSEGNGSHTIRDLKYTIENPRHFVDSHHQKPVNAIIEHVRDGSVVRALLLPDHYLVTVMLSGIKCPTFRRETDGSETPEPFAAEAKFFTESRLLQRDVQIILESCHNQNILGTILHPNGNITELLLKEGFARCVDWSIAVYTRGAEKLRAAERFAKERRLRIWRDYVPPTANLDQKDKQFVAKVMQVLNADAIVVKLNSGDYKTIHLSSIRPPRLEGDNIQDKNKKLRPLYDIPYMFEAREFLRKKLIGKKVSVTVDYIRPASPATETVPAFSERTCATVTIGGINIAEALVSKGLATVIRYRQDDDQRSSHYDELLAAEARAIKNGKGLHSKKEVPIHRVADISGDTQKAKQFLPFLQRAGRSEAVVEYVFSGSRLKLYLPKETCLITFLLAGIECPRGARNLPGLVQEGEPFSEEATLFTKELVLQREVEVEVESMDKAGNFIGWLHMDGANLSVLLVEHALSKVHFTAERSAYYKPLLSAEEAAKQRKEKVWAHYEEQPVEEVMPVLEEKERSASYKPVFVTEITDDLHFYVQDVETGTQLEKLMENMRSDISSHPPVEGAYAPRRGEFCIAKFVDGEWYRARVEKVESPAKVHVFYIDYGNREILPSTRLGALPPAFSTRVLPAQATEYAFAFIQVPQDEDARTDAVDSVVRDIQNTQCLLNVEHLSASCPHVTLQFADSKGDVGLGLVKEGLVMVEVRKEKQFQKVITEYLNAQESAKSARLNLWRYGDFRADDADEFGYSR
B1: the binding entry in assay [5] is “binds”.

B2: Staphylococcal Nuclease and Tudor domain-containing protein (SND1), mouse (protein, UniProt Q78PY7 1-910)
chain: MASSAQSSGSSGGPAVPTVQRGIVKMVLSGCAIIVRGQPRGGPPPERQINLSNIRAGNLARRAAATQPDGKDTPDEPWAFPAREFLRKKLIGKEVCFTIENKTPQGREYGMIYLGKDTNGENIAESLVAEGLATRREGMRANNPEQNRLSECEEQAKASKKGMWSEGNGSHTIRDLKYTIENPRHFVDSHHQKPVNAIIEHVRDGSVVRALLLPGHHLVTVMLSGIKCPTFRRETDGSETPEPFAAEAKFFTESRLLQRDVQIILESCHNQNLLGTILHPNGNITELLLKEGFARCVDWSIAVYTRGAEKLRAAERFAKERRLRIWRDYVPPTANLDQKDKQFVAKVMQVLNADAIVVKLNSGDYKTIHLSSIRPPRLEGDNIQDKNKKLRPLYDIPYMFEAREFLRKKLIGKKVNVTVDYIRPASPATETVPAFSERTCATVTIGGINIAEALVSKGLATVIRYRQDDDQRSSHYDELLAAEARAIKNGKGLHSKKEVPIHRVADISGDTQKAKQFLPFLQRAGRSEAVVEYVFSGSRLKLYLPKETCLITFLLAGIECPRGARNLPGLVQEGEPFSEEATLFTKELVLQREVEVEVESMDKAGNFIGWLHMDGANLSVLLVEQALSKVHFTAERSAYYKPLLSAEEAAKQRKEKVWAHYEERPVEEVMPVLEEKERSASYKPVFVTEITDDLHFYVQDVETGTQLEKLMENMRNDISSHPPVEGSYAPRRGEFCIAKFVDGEWYRARVEKVESPAKVHVFYIDYGNREILPSTRLGTLPPAFSTRVLPAQATEYAFAFIQVPQDEDARTDAVDSVVRDIQNTQCLLNVEHLSASCPHVTLQFADSKGDVGLGLVKEGLVMVEVRKEKQFQKVITEYLNAQESAKSARLNLWRYGDFRADDADEFGYSR
Take B2: the binding entry in assay [6] and in assay [7] was “binds” in each case.

(Values after paper PMC10578191.)
